In patent US7935694B2, “Lactam compounds useful as protein kinase inhibitors” (Millennium Pharmaceuticals, Inc., priority 2004, dated 2011):
Some results were stated once for a whole list of compounds, not compound by compound.

Sequences of proteins named here, by UniProt entry; tags and fusion partners are left off. Residues count along the entry.
UniProt P53350, 2-369 T210D: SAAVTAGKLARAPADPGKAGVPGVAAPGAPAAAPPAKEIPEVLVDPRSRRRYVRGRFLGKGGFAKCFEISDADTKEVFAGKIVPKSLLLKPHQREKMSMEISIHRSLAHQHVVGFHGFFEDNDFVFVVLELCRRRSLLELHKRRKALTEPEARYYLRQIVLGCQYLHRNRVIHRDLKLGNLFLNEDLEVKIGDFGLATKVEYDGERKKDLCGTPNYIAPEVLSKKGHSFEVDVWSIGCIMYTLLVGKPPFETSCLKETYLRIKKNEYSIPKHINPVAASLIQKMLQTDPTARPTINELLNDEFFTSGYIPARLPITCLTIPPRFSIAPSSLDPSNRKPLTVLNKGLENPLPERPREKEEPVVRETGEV

Columns and labels:
Assay type in all cases: biochemical
[1] = biological target: T1, recombinant murine Aurora A enzyme (Mus musculus, UniProt P97477); assay: Aurora A DELFIA Kinase Assay; conditions: 1 mM ATP, 20 nM enzyme, 10 minutes at room temperature
T1 construct: hexahistidine (His6) (N); made in house; host or cells: insect cells (baculovirus, Bac-to-Bac)
T1 sequence (P97477 1-395): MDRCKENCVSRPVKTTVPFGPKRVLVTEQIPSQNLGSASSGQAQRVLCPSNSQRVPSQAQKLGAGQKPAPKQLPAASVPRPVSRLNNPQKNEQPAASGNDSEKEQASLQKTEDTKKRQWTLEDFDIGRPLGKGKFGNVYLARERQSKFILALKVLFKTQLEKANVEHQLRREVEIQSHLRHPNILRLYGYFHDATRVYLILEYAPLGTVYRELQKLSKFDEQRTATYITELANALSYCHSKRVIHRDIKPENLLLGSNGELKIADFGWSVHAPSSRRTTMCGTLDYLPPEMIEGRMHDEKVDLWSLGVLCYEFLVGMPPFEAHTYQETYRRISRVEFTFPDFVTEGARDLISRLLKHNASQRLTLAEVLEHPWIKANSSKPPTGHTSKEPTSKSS
Method: Recombinant mouse Aurora A with an amino-terminus hexahistidine tag (His-Aurora A) was expressed using a standard baculovirus vector and insect cell expression system (Bac-to-Bac®, Invitrogen). Soluble, recombinant mouse Aurora A was purified from insect cells using Ni-NTA agarose (Qiagen) as described by the manufacturer and further purified over an S75 size exclusion column (Amersham Pharmacia Biotech). The mouse Aurora A enzymatic reaction totaled 25 μL and contained 25 mM Tris-HCl (pH 8.5), 2.5 mM MgCl2, 0.05% Surfact-AMPS-20, 5 mM Sodium Fluoride, 5 mM DTT, 1 mM ATP, 3 μM peptide substrate (Biotin-β-[…]), and 20 nM recombinant murine Aurora A enzyme. The enzymatic reaction mixture, with and without Aurora inhibitors, was incubated for 10 minutes at room temperature before termination with 100 μL of stop buffer (1% BSA, 0.05% Surfact-AMPS-20, and 100 mM EDTA). A total of 100 μL of the enzyme reaction mixture was transferred to wells of a Neutravidin-coated 96-well plate (Pierce) and incubated at room temperature for 30 minutes. The wells were washed with wash buffer (25 mM Tris, 150 mM sodium chloride, and 0.1% Tween 20) and incubated for 1 hour with 100 μL of antibody reaction mixture containing 1% BSA, 0.05% Surfact-AMPS-20, anti-phospho-PKA rabbit polyclonal antibody (1:2000, New England Biolabs), and europium labeled anti-rabbit IgG (1:2000, Perkin Elmer). The wells were washed and then the bound europium was liberated using 100 μL of Enhancement Solution (Perkin Elmer). Quantification of europium was done using a WallacTM EnVision (Perkin Elmer).

[2] = biological target: T2, GST-Chk-1 (Homo sapiens, UniProt O14757); assay: Chk-1 DELFIA Kinase Assay; conditions: 50 or 600 μM ATP (depending on potency), 90 minutes at room temperature
T2 construct: made in house; host or cells: insect cells (baculovirus, Bac-to-Bac)
T2 sequence (O14757 1-476): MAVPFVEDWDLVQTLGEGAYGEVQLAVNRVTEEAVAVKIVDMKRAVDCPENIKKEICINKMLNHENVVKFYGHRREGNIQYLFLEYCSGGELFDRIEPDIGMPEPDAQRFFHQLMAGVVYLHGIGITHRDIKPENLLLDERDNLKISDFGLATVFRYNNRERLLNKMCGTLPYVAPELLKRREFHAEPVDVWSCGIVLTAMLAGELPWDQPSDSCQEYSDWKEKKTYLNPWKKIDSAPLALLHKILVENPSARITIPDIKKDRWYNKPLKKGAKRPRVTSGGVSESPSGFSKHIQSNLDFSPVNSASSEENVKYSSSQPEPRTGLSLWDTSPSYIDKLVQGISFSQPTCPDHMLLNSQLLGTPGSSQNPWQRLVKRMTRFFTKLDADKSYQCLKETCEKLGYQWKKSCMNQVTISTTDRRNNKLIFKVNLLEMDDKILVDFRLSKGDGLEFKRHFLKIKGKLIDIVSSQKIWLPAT

[3] = biological target: T3, recombinant human PLK1[2-369]T210D (Homo sapiens, UniProt P53350, T210D); assay: PLK1 Flash Plate Assay; conditions: 8 μM ATP, 2.5 hours at 30° C.
T3 construct: recombinant human PLK1[2-369]T210D; Smt (SUMO) fusion partner (N, cleaved yes); host or cells: E. coli

SMILES | IC50 [1] | IC50 [2] | IC50 [3]
COc1ccc(Nc2ncc3c(n2)-c2ccc(C#CCNC(=O)OC(C)(C)C)cc2NC(=O)C3)cc1OC [Compound I-39, {3-[2-(3,4-Dimethoxy-phenylamino)-6-oxo-6,7-dihydro-5H-benzo[b]pyrimido[4,5-d]azepin-9-yl]-prop-2-ynyl}-carbamic acid tert-butyl ester] | ≤ 5 µM | ≤ 5 µM | 
O=C1Cc2cnc(Nc3ccc(C(=O)O)cc3)nc2-c2cc(F)ccc2N1 [Compound I-5, 4-(10-Fluoro-6-oxo-6,7-dihydro-5H-benzo[b]pyrimido[4,5-d]azepin-2-ylamino)-benzoic acid] | ≤ 5 µM | ≤ 5 µM | 
COc1ccc(Nc2ncc3c(n2)-c2ccc(Cl)cc2NC(=O)C3)cc1 [Compound I-14, 9-Chloro-2-(4-methoxy-phenylamino)-5H,7H-benzo[b]pyrimido[4,5-d]azepin-6-one] | ≤ 5 µM | ≤ 5 µM | 
COc1ccc(Nc2ncc3c(n2)-c2cc(I)ccc2NC(=O)C3)cc1OC [Compound I-26, 2-(3,4-dimethoxy-phenylamino)-10-iodo-5H,7H-benzo[b]pyrimido[4,5-d]azepin-6-one] | ≤ 5 µM | ≤ 5 µM | ≤ 5 µM
COc1ccc(Nc2ncc3c(n2)-c2cc(C#CCN)ccc2NC(=O)C3)cc1OC [Compound I-59, 10-(3-Amino-prop-1-ynyl)-2-(3,4-dimethoxy-phenylamino)-5H,7H-benzo[b]-pyrimido[4,5-d]azepin-6-one] | ≤ 5 µM | ≤ 5 µM | 
O=C(O)c1ccc(Nc2ncc3c(n2)-c2ccc(Cl)cc2N(Cc2ccccc2)C(=O)C3)cc1 [Compound I-6, 4-(7-Benzyl-9-chloro-6-oxo-6,7-dihydro-5H-benzo[b]pyrimido[4,5-d]azepin-2-ylamino)-benzoic acid] | ≤ 5 µM | ≤ 5 µM | 
